Measured values from paper PMC3748051.
Results are given in words; binding and its absence hold for the method and conditions named. Some entries that bind do so weakly or less than the wild type.

Target: cervid recPrP 89-231 (cervid) (UniProt Q7JIQ1)
Assay: ThT fluorescence kinetics of de novo fibrillation; both purified

In the case of “cervid recPrP 89-231 (from UniProt Q7JIQ1 89-231) (domain or fragment)”, the binding is reported as “binds”.
